Protein sequences, listed by entry. Tags and fused reporters are not part of them. Lines headed by an entry give the natural chain unless they say otherwise; changes in a name come on top. Chains listed by the source or under a name are the forms on record and can include a tag or linker.
UniProt Q92560: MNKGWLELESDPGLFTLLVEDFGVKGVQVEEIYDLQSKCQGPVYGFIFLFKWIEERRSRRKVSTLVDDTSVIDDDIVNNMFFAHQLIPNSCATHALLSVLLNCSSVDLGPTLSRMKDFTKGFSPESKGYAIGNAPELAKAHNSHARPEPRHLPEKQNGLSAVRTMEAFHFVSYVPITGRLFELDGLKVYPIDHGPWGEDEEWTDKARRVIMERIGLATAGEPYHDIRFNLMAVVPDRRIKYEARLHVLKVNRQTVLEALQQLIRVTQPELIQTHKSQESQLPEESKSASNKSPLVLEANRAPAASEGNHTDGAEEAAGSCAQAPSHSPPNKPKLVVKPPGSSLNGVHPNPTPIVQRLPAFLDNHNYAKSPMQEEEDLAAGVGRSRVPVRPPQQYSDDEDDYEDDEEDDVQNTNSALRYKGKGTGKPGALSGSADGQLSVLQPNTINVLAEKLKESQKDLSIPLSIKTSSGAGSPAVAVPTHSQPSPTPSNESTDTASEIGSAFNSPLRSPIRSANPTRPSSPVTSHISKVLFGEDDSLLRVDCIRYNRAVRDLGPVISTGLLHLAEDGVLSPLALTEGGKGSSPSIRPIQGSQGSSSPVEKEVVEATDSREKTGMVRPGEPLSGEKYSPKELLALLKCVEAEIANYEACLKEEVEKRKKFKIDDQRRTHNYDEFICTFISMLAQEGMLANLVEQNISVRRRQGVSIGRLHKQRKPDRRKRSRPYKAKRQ
GFP-BAP1 Δ671–710 (Q92560, form named): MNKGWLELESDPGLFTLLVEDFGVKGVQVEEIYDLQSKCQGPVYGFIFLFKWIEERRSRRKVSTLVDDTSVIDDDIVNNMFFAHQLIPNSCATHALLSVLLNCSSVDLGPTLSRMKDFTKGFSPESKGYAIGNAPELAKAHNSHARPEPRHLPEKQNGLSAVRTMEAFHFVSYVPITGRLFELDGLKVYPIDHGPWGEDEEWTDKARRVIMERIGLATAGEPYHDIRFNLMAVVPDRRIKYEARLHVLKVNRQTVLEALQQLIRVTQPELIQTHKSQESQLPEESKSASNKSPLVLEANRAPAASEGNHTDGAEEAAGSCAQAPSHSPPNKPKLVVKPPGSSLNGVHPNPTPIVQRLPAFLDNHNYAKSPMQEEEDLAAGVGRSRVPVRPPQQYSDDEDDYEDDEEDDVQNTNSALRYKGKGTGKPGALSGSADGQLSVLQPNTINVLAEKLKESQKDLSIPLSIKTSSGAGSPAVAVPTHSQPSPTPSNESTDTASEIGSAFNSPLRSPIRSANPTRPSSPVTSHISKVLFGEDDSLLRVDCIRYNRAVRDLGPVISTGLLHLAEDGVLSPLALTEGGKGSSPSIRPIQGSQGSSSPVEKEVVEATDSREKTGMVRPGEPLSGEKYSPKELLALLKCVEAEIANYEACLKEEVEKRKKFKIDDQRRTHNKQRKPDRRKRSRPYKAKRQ

In PMC8483321:

Legend:
GFP-BAP1 Δ671–710 [1] = target: GFP-BAP1 Δ671–710 (UniProt Q92560); experiment: affinity purification with mass spectrometry; GFP-Trap agarose beads, 20 min at 4°C with ethidium bromide, washes in C300 buffer; cytoplasmic extracts of HeLa FRT ΔBAP1 (clone 4D2) lines expressing GFP-BAP1 full-length, 2–670 or Δ671–710; GFP or mock immunoprecipitation
[2] = target: (N)GFP-FLAG-BAP1 fusion protein (BRCA1-associated protein 1, full-length) (UniProt Q92560); experiment: as above
GFP-BAP1 Δ671–710 [3] = target: GFP-BAP1 Δ671–710 (UniProt Q92560); experiment: affinity purification with mass spectrometry; GFP-Trap agarose beads, 20 min at 4°C with ethidium bromide, washes in C300 buffer; nuclear extracts of HeLa FRT ΔBAP1 (clone 4D2) lines expressing GFP-BAP1 full-length, 2–670 or Δ671–710; GFP or mock immunoprecipitation
[4] = target: (N)GFP-FLAG-BAP1 fusion protein (BRCA1-associated protein 1, full-length) (UniProt Q92560); experiment: as above
[5] = target: (N)GFP-FLAG-BAP1 fusion protein (BRCA1-associated protein 1, full-length) (UniProt Q92560); experiment: affinity purification with mass spectrometry; GFP-Trap agarose beads, 20 min at 4°C with ethidium bromide, washes in C300 buffer; cytoplasmic extract of HeLa FRT cells (endogenous BAP1 present) induced with doxycycline to express GFP-BAP1; against mock precipitation
[6] = target: (N)GFP-FLAG-BAP1 fusion protein (BRCA1-associated protein 1, full-length) (UniProt Q92560); experiment: affinity purification with mass spectrometry; GFP-Trap agarose beads, 20 min at 4°C with ethidium bromide, washes in C300 buffer; nuclear extract of HeLa FRT cells (endogenous BAP1 present) induced with doxycycline to express GFP-BAP1; against mock precipitation

B1: UBE2O (enzyme, UniProt Q9C0C9 1-1292)
chain: MADPAAPTPAAPAPAQAPAPAPEAVPAPAAAPVPAPAPASDSASGPSSDSGPEAGSQRLLFSHDLVSGRYRGSVHFGLVRLIHGEDSDSEGEEEGRGSSGCSEAGGAGHEEGRASPLRRGYVRVQWYPEGVKQHVKETKLKLEDRSVVPRDVVRHMRSTDSQCGTVIDVNIDCAVKLIGTNCIIYPVNSKDLQHIWPFMYGDYIAYDCWLGKVYDLKNQIILKLSNGARCSMNTEDGAKLYDVCPHVSDSGLFFDDSYGFYPGQVLIGPAKIFSSVQWLSGVKPVLSTKSKFRVVVEEVQVVELKVTWITKSFCPGGTDSVSPPPSVITQENLGRVKRLGCFDHAQRQLGERCLYVFPAKVEPAKIAWECPEKNCAQGEGSMAKKVKRLLKKQVVRIMSCSPDTQCSRDHSMEDPDKKGESKTKSEAESASPEETPDGSASPVEMQDEGAEEPHEAGEQLPPFLLKEGRDDRLHSAEQDADDEAADDTDDTSSVTSSASSTTSSQSGSGTSRKKSIPLSIKNLKRKHKRKKNKITRDFKPGDRVAVEVVTTMTSADVMWQDGSVECNIRSNDLFPVHHLDNNEFCPGDFVVDKRVQSCPDPAVYGVVQSGDHIGRTCMVKWFKLRPSGDDVELIGEEEDVSVYDIADHPDFRFRTTDIVIRIGNTEDGAPHKEDEPSVGQVARVDVSSKVEVVWADNSKTIILPQHLYNIESEIEESDYDSVEGSTSGASSDEWEDDSDSWETDNGLVEDEHPKIEEPPIPPLEQPVAPEDKGVVISEEAATAAVQGAVAMAAPMAGLMEKAGKDGPPKSFRELKEAIKILESLKNMTVEQLLTGSPTSPTVEPEKPTREKKFLDDIKKLQENLKKTLDNVAIVEEEKMEAVPDVERKEDKPEGQSPVKAEWPSETPVLCQQCGGKPGVTFTSAKGEVFSVLEFAPSNHSFKKIEFQPPEAKKFFSTVRKEMALLATSLPEGIMVKTFEDRMDLFSALIKGPTRTPYEDGLYLFDIQLPNIYPAVPPHFCYLSQCSGRLNPNLYDNGKVCVSLLGTWIGKGTERWTSKSSLLQVLISIQGLILVNEPYYNEAGFDSDRGLQEGYENSRCYNEMALIRVVQSMTQLVRRPPEVFEQEIRQHFSTGGWRLVNRIESWLETHALLEKAQALPNGVPKASSSPEPPAVAELSDSGQQEPEDGGPAPGEASQGSDSEGGAQGLASASRDHTDQTSETAPDASVPPSVKPKKRRKSYRSFLPEKSGYPDIGFPLFPLSKGFIKSIRGVLTQFRAALLEAGMPECTEDK
GFP-BAP1 Δ671–710 [1]
  binding: binds
[2]
  binding: binds
GFP-BAP1 Δ671–710 [3]
  binding: no binding (only in the nuclear extract)
[4]
  binding: binds
[5]
  binding: binds
[6]
  binding: binds

These are yes or no findings as the source states them, for the method shown. Binding seen in cells or lysates may run through a third protein. Here binding means that the protein was enriched with, or labelled near, the bait; the list need not be complete. For part of these data: A no says only that the protein was not detected with the bait.
